PubChem BioAssay AID1224830 – NIAID, 2016
In all, the deposit lists about 18,000 reagents; this is an unselected part. Over the whole deposit, about 2,900 (16%) got an active call. 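Calls are made per well; low scores hint the gene aids the LPS response, high scores that it dampens it.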 Entries without a mark were called inactive. Repeated entries: four replicate wells of each siRNA pool.

- Purpose: 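Genes whose knock-down alters the TNF-alpha reporter response to LPS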 (primary screen)
- Cells: human THP-1 monocytic leukaemia cells, TNF dual-luciferase reporter clone, PMA-differentiated to macrophage-like cells
- Knock-down reagent: siRNA pool against human genes, 50 nM
- Timing: LPS for 4 h, given about 3 days after siRNA transfection
- Challenge: bacterial LPS (TLR4 ligand), 10 ng/ml
- Detection: 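Ratio of firefly to renilla light, scaled to the plate median and expressed as a robust z-score per replicate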
- Direction: TNF reporter robust z-score: higher = stronger TNF reporter response to LPS
- Call rule: 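Each well counts as active if its z-score is over 2.8 or under -1.5; controls are left without a call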

no.	gene	TNF reporter robust z-score
1	ARIH1 (GeneID 25820)	0.87
2	ARIH1 (GeneID 25820)	0.96
3	ARIH1 (GeneID 25820)	-0.1
4	ARIH1 (GeneID 25820)	-0.4
5	IER2 (GeneID 9592)	0.13
6	IER2 (GeneID 9592)	0.79
7	IER2 (GeneID 9592)	0.74
8	IER2 (GeneID 9592)	0.49
9	CCL1 (GeneID 6346)	2.75
10	CCL1 (GeneID 6346)	2.82 (active)
11	CCL1 (GeneID 6346)	2.28
12	CCL1 (GeneID 6346)	-0.85
13	FCER1G (GeneID 2207)	-0.66
14	FCER1G (GeneID 2207)	0.79
15	FCER1G (GeneID 2207)	-0.33
16	FCER1G (GeneID 2207)	0.75
17	ZNF528 (GeneID 84436)	-1.56 (active)
18	ZNF528 (GeneID 84436)	-0.94
19	ZNF528 (GeneID 84436)	-1.58 (active)
20	ZNF528 (GeneID 84436)	-1.25
21	PITPNM2 (GeneID 57605)	-0.31
22	PITPNM2 (GeneID 57605)	-0.24
23	PITPNM2 (GeneID 57605)	-1.02
24	PITPNM2 (GeneID 57605)	-0.69
25	MITF (GeneID 4286)	0.61
26	MITF (GeneID 4286)	-0.23
27	MITF (GeneID 4286)	-0.43
28	MITF (GeneID 4286)	-1.4
29	HFM1 (GeneID 164045)	0.45
30	HFM1 (GeneID 164045)	0.04
31	HFM1 (GeneID 164045)	0.07
32	HFM1 (GeneID 164045)	0.09
33	PNLIPRP1 (GeneID 5407)	-1.03
34	PNLIPRP1 (GeneID 5407)	-1.16
35	PNLIPRP1 (GeneID 5407)	-1.28
36	PNLIPRP1 (GeneID 5407)	-0.95
37	STRIP2 (GeneID 57464)	-0.95
38	STRIP2 (GeneID 57464)	-0.33
39	STRIP2 (GeneID 57464)	-0.5
40	STRIP2 (GeneID 57464)	-0.17
41	NR2E3 (GeneID 10002)	0.28
42	NR2E3 (GeneID 10002)	0.85
43	NR2E3 (GeneID 10002)	0.48
44	NR2E3 (GeneID 10002)	0.21
45	DEFB107B (GeneID 503614)	0.08
46	DEFB107B (GeneID 503614)	0.01
47	DEFB107B (GeneID 503614)	0.38
48	DEFB107B (GeneID 503614)	0.95
49	KCTD5 (GeneID 54442)	0.13
50	KCTD5 (GeneID 54442)	-0.9
51	KCTD5 (GeneID 54442)	-1.11
52	KCTD5 (GeneID 54442)	-0.49
53	TBC1D2B (GeneID 23102)	-0.08
54	TBC1D2B (GeneID 23102)	-0.93
55	TBC1D2B (GeneID 23102)	-1.59 (active)
56	TBC1D2B (GeneID 23102)	-1.07
57	ZNF713 (GeneID 349075)	1.74
58	ZNF713 (GeneID 349075)	3.3 (active)
59	ZNF713 (GeneID 349075)	1.31
60	ZNF713 (GeneID 349075)	0.65
61	DYNC1H1 (GeneID 1778)	-0.76
62	DYNC1H1 (GeneID 1778)	-1.39
63	DYNC1H1 (GeneID 1778)	-1.67 (active)
64	DYNC1H1 (GeneID 1778)	-0.53
65	OR8B8 (GeneID 26493)	0.32
66	OR8B8 (GeneID 26493)	0.56
67	OR8B8 (GeneID 26493)	0.17
68	OR8B8 (GeneID 26493)	0.61
69	POLR3C (GeneID 10623)	2.52
70	POLR3C (GeneID 10623)	2.15
71	POLR3C (GeneID 10623)	1.64
72	POLR3C (GeneID 10623)	2.07
73	SOX8 (GeneID 30812)	0.66
74	SOX8 (GeneID 30812)	0.23
75	SOX8 (GeneID 30812)	-0.67
76	SOX8 (GeneID 30812)	-1.28
77	POT1 (GeneID 25913)	-0.57
78	POT1 (GeneID 25913)	-0.37
79	POT1 (GeneID 25913)	-0.5
80	POT1 (GeneID 25913)	-0.51
81	COXFA4 (GeneID 4697)	0.33
82	COXFA4 (GeneID 4697)	2.8 (active)
83	COXFA4 (GeneID 4697)	0.67
84	COXFA4 (GeneID 4697)	0.19
85	DYNLT1 (GeneID 6993)	-0.34
86	DYNLT1 (GeneID 6993)	0.81
87	DYNLT1 (GeneID 6993)	-0.62
88	DYNLT1 (GeneID 6993)	-0.04
89	GP6 (GeneID 51206)	0.78
90	GP6 (GeneID 51206)	0.52
91	GP6 (GeneID 51206)	0.35
92	GP6 (GeneID 51206)	1.79
93	MXI1 (GeneID 4601)	-0.79
94	MXI1 (GeneID 4601)	-0.84
95	MXI1 (GeneID 4601)	-0.71
96	MXI1 (GeneID 4601)	0.21
97	SUCLG2 (GeneID 8801)	-0.23
98	SUCLG2 (GeneID 8801)	-0.54
99	SUCLG2 (GeneID 8801)	-0.75
100	SUCLG2 (GeneID 8801)	-0.35
101	ERGIC1 (GeneID 57222)	-0.38
102	ERGIC1 (GeneID 57222)	-0.72
103	ERGIC1 (GeneID 57222)	-0.33
104	ERGIC1 (GeneID 57222)	-1.09
105	SPRR1B (GeneID 6699)	-2.05 (active)
106	SPRR1B (GeneID 6699)	-1.98 (active)
107	SPRR1B (GeneID 6699)	-2.07 (active)
108	SPRR1B (GeneID 6699)	-1.83 (active)
109	IL12RB1 (GeneID 3594)	0.38
110	IL12RB1 (GeneID 3594)	-0.3
111	IL12RB1 (GeneID 3594)	0.09
112	IL12RB1 (GeneID 3594)	0.36
113	MYO1G (GeneID 64005)	1.58
114	MYO1G (GeneID 64005)	1.51
115	MYO1G (GeneID 64005)	-0.1
116	MYO1G (GeneID 64005)	0.32
117	DNLZ (GeneID 728489)	0.81
118	DNLZ (GeneID 728489)	1.62
119	DNLZ (GeneID 728489)	2.35
120	DNLZ (GeneID 728489)	3.05 (active)
121	TICRR (GeneID 90381)	3.72 (active)
122	TICRR (GeneID 90381)	2.06
123	TICRR (GeneID 90381)	3.43 (active)
124	TICRR (GeneID 90381)	3.74 (active)
125	H2BC11 (GeneID 8970)	-1.71 (active)
126	H2BC11 (GeneID 8970)	-0.44
127	H2BC11 (GeneID 8970)	-1.22
128	H2BC11 (GeneID 8970)	-0.82
129	DAZ4 (GeneID 57135)	1.28
130	DAZ4 (GeneID 57135)	1.95
131	DAZ4 (GeneID 57135)	1.14
132	DAZ4 (GeneID 57135)	1.1
133	PPP1CB (GeneID 5500)	0.45
134	PPP1CB (GeneID 5500)	2.07
135	PPP1CB (GeneID 5500)	-0.78
136	PPP1CB (GeneID 5500)	0.4
137	DAZ3 (GeneID 57054)	-0.2
138	DAZ3 (GeneID 57054)	0.52
139	DAZ3 (GeneID 57054)	-0.64
140	DAZ3 (GeneID 57054)	0.73

Targets listed so far whose target name starts with E or e (4):
gene	TNF reporter robust z-score
ERGIC1 (GeneID 57222)	-0.38
ERGIC1 (GeneID 57222)	-0.72
ERGIC1 (GeneID 57222)	-0.33
ERGIC1 (GeneID 57222)	-1.09
